Results deposited as PubChem BioAssay AID504764 (Drosophila RNAi Screening Center, 2011).
Purpose: 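Genome-wide screen for regulators of Notch-driven gene expression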 (primary screen). Cells: Drosophila Kc167 cells. Reagent: long dsRNA against Drosophila genes. Timing: about 5 days (4 days dsRNA, then 24 h after transfection). Conditions: transfection of constitutively active membrane-tethered Notch lacking the extracellular domain, read 24 h later. Measured: 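Light from a Notch-responsive E(spl)m3 luciferase reporter under active Notch, with control-promoter and no-Notch reporter wells to normalise; raw counts from paired wells a and b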. Reading the numbers: induced reporter light, run 1, well a and induced reporter light, run 1, well b: higher = more light from the Notch target reporter with active Notch; control promoter light, run 1, well a and control promoter light, run 1, well b: higher = more light from the viral control promoter (cell number, transfection, viability); uninduced reporter light, run 1, well a: higher = more light from the Notch target reporter without active Notch. Hit rule: 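Hit if the duplicate-averaged log2 ratio of induced to control-promoter light gives a plate-wise z beyond ±2, or induced to uninduced beyond ±1.8; weak-control or discordant-duplicate wells dropped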. Calls: active = modifier hit (raised or lowered Notch signal); inactive = not a hit.
The screen tested about 22,000 reagents; shown is a random part of those that have a named target and a result. Over the whole deposit, 403 (1.9%) got an active call. 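Unnormalised raw counts per well; ratio z-scores behind the hit calls and whether each hit raises or lowers signal are not deposited.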 Names joined by + are all predicted targets of the reagent. The record does not give: the amount of reagent.

gene knocked down	PubChem SID	induced reporter light, run 1, well a	induced reporter light, run 1, well b	control promoter light, run 1, well a	control promoter light, run 1, well b	uninduced reporter light, run 1, well a	activity call
CG9886	SID104180524	1.39e5	1.27e5	1.62e5	1.64e5	14675	inactive
srl	SID104192132	42680	30390	41840	38320	2932	inactive
Mgat3	SID104181097	87100	87610	90995	1.08e5	6910	inactive
CG15534	SID104194862	1.26e5	1.19e5	1.52e5	1.43e5	9720	inactive
oaf	SID104180623	1.14e5	1.25e5	99800	48355	8315	inactive
IFT54	SID104195261	2.21e5	2.10e5	1.87e5	1.88e5	14050	inactive
Slc25A46b	SID104182680	1.02e5	1.21e5	1.25e5	1.40e5	8080	inactive
CG13018	SID104186066	94495	86550	1.34e5	1.37e5	8995	inactive
CG8026	SID104186847	2.62e5	2.00e5	2.06e5	2.19e5	16380	inactive
CG8026	SID104186848	1.71e5	1.34e5	2.43e5	2.03e5	15395	inactive
CG31100	SID104194245	1.24e5	1.16e5	1.13e5	88060	8778	inactive
CG31100	SID104194247	76765	69985	61085	55685	4478	inactive
raw	SID104183391	66935	1.31e5	80030	1.22e5	18810	inactive
raw	SID104183392	74035	1.10e5	72870	60965	15845	inactive
CG10467	SID104189520	1.58e5	1.26e5	1.10e5	85600	7100	active
CG42552 (retired record)	SID104191304	2.36e5	2.14e5	3.20e5	2.05e5	17670	inactive
CG14455	SID104191504	1.56e5	91130	1.14e5	91930	6690	inactive
DCTN4-p62	SID104185893	2.13e5	1.94e5	2.53e5	2.04e5	18870	inactive
plu	SID104187457	41465	36475	41305	48375	4385	inactive
yip3	SID104184516	1.86e5	2.07e5	1.74e5	1.78e5	15775	inactive
Gr36c	SID104182229	1.06e5	97935	1.42e5	1.38e5	9130	inactive
His4r	SID104196495	45465	54175	55175	49650	8160	inactive
CG32988	SID104182484	1.29e5	1.35e5	99475	1.13e5	22082	inactive
Lcp65Ag3 + Lcp65Ag2 + Lcp65Ag1	SID104191006	1.35e5	1.27e5	1.51e5	1.92e5	8165	inactive
Lcp65Ag3 + Lcp65Ag2 + Lcp65Ag1	SID104191007	1.50e5	1.81e5	2.68e5	1.41e5	7130	inactive
CG17672	SID104189022	5580	5120	8385	8888	6570	inactive
CG17672	SID104190070	1.42e5	1.26e5	1.14e5	67270	14332	inactive
CG31638	SID104182061	1.10e5	93805	1.05e5	81640	9605	inactive
CG31638	SID104183051	2.06e5	1.59e5	2.40e5	2.11e5	9490	inactive

4 entries from above, arranged by “control promoter light, run 1, well a”, descending.
gene knocked down	PubChem SID	induced reporter light, run 1, well a	induced reporter light, run 1, well b	control promoter light, run 1, well a	control promoter light, run 1, well b	uninduced reporter light, run 1, well a	activity call
CG31100	SID104194245	1.24e5	1.16e5	1.13e5	88060	8778	inactive
raw	SID104183391	66935	1.31e5	80030	1.22e5	18810	inactive
raw	SID104183392	74035	1.10e5	72870	60965	15845	inactive
CG31100	SID104194247	76765	69985	61085	55685	4478	inactive

The results go on:
gene knocked down	PubChem SID	induced reporter light, run 1, well a	induced reporter light, run 1, well b	control promoter light, run 1, well a	control promoter light, run 1, well b	uninduced reporter light, run 1, well a	activity call
GckIII	SID104195521	1.67e5	1.97e5	1.73e5	1.68e5	17360	inactive
DAT	SID104187186	96920	77905	1.09e5	1.12e5	7410	inactive
CG31178	SID104194382	1.72e5	1.42e5	2.23e5	2.16e5	15735	inactive
CG13609	SID104194404	1.54e5	1.58e5	2.05e5	2.07e5	14630	inactive
l(2)k10201	SID104186231	1.95e5	2.04e5	2.36e5	2.38e5	18285	inactive
l(2)k10201	SID104187432	1.97e5	2.00e5	2.43e5	2.44e5	19730	inactive
CG14355	SID104194610	1.61e5	1.74e5	1.11e5	1.17e5	9970	inactive
Ance-2	SID104182331	1.32e5	1.35e5	1.59e5	1.88e5	10592	inactive
Cul2	SID104183502	2.13e5	2.58e5	1.70e5	1.90e5	14005	inactive
CG7407	SID104191616	1.44e5	1.14e5	63935	73005	9750	inactive
Ddx56	SID104200359	72210	90475	79600	1.13e5	8770	inactive
L (retired record)	SID104185758	64180	53150	69345	65265	9025	active
L (retired record)	SID104185759	43060	42935	43340	35045	5370	inactive
CCT5	SID104187149	24650	23715	20635	22185	1925	inactive
Btnd	SID104198108	1.31e5	1.33e5	2.27e5	2.18e5	9942	inactive
CG3280 (retired record)	SID104190148	1.49e5	1.41e5	1.73e5	1.48e5	9060	inactive
CG17751	SID104195053	1.63e5	1.49e5	1.90e5	1.87e5	10485	inactive
ND-B22	SID104182985	66345	76145	77495	1.07e5	5570	inactive
X11Lbeta	SID104197948	76785	91095	1.21e5	96670	6845	inactive
X11Lbeta	SID104197950	1.00e5	1.22e5	1.89e5	1.79e5	7385	inactive
CG16976 (retired record)	SID104188291	1.42e5	98215	1.88e5	1.66e5	9845	inactive
